{
  "sequences": {"note": "Sequences of proteins named here, by UniProt entry; tags and fusion partners are left off.", "UniProt P15307": "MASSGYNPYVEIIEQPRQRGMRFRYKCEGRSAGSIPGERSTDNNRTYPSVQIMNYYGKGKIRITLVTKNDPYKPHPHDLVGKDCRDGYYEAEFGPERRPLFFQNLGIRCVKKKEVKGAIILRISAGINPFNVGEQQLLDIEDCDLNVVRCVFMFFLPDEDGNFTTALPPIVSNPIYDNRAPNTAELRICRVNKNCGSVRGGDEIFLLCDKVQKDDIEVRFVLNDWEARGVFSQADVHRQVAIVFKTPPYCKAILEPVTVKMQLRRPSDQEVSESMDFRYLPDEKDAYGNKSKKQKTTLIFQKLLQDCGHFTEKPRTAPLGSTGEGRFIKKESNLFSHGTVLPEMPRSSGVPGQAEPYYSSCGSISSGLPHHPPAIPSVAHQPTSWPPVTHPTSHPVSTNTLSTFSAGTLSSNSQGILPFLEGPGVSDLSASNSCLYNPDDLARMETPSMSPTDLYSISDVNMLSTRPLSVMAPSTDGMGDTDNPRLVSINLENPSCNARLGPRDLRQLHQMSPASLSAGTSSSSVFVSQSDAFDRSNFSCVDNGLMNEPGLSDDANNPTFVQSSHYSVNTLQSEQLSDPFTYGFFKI", "UniProt Q04207": "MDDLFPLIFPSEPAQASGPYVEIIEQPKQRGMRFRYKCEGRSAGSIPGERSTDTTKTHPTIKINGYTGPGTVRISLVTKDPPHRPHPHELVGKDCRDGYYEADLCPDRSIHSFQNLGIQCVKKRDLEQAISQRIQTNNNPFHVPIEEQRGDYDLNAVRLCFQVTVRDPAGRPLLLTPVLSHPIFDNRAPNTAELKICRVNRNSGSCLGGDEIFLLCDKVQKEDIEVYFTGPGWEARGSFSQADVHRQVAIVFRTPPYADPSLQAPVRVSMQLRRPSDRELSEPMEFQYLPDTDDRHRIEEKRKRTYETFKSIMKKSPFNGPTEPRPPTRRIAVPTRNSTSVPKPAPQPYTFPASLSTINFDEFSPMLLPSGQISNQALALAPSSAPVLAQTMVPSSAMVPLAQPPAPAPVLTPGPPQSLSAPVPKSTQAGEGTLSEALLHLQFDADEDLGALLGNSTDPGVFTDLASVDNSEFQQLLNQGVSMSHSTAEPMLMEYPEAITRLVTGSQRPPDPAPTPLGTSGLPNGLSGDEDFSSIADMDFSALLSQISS"},
  "source": "paper PMC5682668",
  "key": {"[1]": {"target": "c-Rel (mouse (endogenous in C57BL/6 RPE–choroid complexes)) (UniProt P15307)", "assay": "co-IP; endogenous proteins of mouse RPE–choroid complexes, 4 days after intravitreal injection of Aβ1-40 or PBS; Pierce Co-Immunoprecipitation Kit; precipitation with rabbit anti-RelA, anti-RelB/c-Rel or rabbit IgG, western blot with mouse antibodies"}, "[2]": {"target": "T1, RelB (mouse (endogenous in C57BL/6 RPE–choroid complexes)) (UniProt Q04863)", "T1 sequence": "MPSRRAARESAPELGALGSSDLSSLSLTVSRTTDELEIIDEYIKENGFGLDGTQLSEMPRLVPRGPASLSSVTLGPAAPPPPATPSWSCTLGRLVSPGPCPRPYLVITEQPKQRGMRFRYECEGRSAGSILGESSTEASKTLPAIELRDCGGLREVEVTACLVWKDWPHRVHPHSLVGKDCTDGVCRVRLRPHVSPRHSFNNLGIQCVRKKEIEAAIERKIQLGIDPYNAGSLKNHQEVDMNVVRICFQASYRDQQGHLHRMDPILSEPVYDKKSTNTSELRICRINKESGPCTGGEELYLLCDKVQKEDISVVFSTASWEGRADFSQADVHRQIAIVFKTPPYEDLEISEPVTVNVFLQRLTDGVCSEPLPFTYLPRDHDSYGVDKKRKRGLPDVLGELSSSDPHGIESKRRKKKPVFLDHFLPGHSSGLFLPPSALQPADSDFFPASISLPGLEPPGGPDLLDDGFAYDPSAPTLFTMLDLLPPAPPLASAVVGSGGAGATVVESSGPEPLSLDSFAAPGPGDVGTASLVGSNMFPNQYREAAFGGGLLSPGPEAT", "assay": "co-IP; endogenous proteins of mouse RPE–choroid complexes, 4 days after intravitreal injection of Aβ1-40 or PBS; Pierce Co-Immunoprecipitation Kit; precipitation with rabbit anti-RelA, anti-RelB/c-Rel or rabbit IgG, western blot with mouse antibodies"}},
  "note": "Results are given in words; binding and its absence hold for the method and conditions named. In cells and extracts the contact can be indirect. Some results given as binding are weak or reduced against the parent protein; the word gives no strength.",
  "data": [
    {"substance": "RelA (p65) (from UniProt Q04207 1-549)", "values": [
      {"measurement": "binding", "setting": "[1]", "value": "binds"},
      {"measurement": "binding", "setting": "[2]", "value": "binds"}
    ]}
  ]
}
